Measurements published in article PMC4636238.
Results are given in words; binding and its absence hold for the method and conditions named. Binding seen in cells or lysates may run through a third protein. These calls come from enrichment with a bait or labelling near it, and not all partners need be listed. Sequences can lack the tags named with a protein. Each block holds one molecule with its values, some of them ahead of it.

Protein sequences, listed by entry. Tags and fused reporters are not part of them. Residues count along the entry.
UniProt P02788, residues 20-710: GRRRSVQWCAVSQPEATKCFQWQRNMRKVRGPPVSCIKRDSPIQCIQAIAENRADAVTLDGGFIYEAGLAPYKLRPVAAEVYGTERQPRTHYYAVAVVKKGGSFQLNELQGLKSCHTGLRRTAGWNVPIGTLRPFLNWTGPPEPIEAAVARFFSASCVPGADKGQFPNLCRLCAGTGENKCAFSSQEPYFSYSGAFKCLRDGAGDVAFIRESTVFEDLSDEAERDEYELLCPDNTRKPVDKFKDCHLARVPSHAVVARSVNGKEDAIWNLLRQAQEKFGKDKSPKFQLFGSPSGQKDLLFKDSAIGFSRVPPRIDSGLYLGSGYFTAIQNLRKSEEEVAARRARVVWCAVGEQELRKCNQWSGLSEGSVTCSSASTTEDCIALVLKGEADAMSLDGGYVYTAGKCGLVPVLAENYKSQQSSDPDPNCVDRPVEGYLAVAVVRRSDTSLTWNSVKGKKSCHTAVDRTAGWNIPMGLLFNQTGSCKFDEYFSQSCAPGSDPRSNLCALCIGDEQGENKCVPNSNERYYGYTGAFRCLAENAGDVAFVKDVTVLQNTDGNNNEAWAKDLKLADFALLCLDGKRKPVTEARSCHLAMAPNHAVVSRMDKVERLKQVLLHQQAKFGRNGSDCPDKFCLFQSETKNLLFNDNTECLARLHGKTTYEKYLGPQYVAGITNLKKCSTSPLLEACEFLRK
UniProt P23280, residues 18-308: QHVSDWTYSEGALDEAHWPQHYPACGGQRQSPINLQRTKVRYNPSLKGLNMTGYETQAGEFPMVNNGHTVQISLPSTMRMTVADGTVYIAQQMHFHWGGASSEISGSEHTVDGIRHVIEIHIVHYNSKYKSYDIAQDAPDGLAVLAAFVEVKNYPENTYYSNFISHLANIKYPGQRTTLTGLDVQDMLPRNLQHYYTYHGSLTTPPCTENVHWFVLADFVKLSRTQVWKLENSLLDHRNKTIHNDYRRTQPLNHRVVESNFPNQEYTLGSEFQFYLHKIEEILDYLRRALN
UniProt P08123, residues 80-1119: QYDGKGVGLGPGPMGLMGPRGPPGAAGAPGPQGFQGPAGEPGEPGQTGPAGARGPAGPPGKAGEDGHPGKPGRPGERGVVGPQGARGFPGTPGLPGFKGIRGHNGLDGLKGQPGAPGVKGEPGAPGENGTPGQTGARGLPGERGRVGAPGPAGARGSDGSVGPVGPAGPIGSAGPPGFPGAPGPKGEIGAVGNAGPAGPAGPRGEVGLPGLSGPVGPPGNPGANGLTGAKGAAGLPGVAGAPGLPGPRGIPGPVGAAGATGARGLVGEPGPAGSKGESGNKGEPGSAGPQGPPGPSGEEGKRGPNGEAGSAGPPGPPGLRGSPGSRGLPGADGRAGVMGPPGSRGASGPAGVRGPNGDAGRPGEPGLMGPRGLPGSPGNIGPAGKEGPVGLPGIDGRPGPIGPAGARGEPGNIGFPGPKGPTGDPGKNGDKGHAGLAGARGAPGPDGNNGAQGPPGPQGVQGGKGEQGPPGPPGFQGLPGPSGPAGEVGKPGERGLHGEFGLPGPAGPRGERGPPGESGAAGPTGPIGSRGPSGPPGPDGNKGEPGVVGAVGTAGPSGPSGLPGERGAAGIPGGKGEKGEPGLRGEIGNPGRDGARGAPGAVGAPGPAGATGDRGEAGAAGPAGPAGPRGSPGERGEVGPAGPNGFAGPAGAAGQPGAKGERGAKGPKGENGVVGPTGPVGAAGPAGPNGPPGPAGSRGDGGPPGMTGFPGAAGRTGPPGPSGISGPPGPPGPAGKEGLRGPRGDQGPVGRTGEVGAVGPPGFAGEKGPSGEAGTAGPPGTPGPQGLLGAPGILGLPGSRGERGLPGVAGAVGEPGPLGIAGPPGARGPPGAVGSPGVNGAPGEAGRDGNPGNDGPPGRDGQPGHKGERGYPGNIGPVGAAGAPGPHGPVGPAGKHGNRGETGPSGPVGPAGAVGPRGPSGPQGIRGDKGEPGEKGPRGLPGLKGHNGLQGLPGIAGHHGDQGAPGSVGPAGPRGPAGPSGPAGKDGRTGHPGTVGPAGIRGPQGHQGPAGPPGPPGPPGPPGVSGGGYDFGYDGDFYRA
UniProt Q6PIF6: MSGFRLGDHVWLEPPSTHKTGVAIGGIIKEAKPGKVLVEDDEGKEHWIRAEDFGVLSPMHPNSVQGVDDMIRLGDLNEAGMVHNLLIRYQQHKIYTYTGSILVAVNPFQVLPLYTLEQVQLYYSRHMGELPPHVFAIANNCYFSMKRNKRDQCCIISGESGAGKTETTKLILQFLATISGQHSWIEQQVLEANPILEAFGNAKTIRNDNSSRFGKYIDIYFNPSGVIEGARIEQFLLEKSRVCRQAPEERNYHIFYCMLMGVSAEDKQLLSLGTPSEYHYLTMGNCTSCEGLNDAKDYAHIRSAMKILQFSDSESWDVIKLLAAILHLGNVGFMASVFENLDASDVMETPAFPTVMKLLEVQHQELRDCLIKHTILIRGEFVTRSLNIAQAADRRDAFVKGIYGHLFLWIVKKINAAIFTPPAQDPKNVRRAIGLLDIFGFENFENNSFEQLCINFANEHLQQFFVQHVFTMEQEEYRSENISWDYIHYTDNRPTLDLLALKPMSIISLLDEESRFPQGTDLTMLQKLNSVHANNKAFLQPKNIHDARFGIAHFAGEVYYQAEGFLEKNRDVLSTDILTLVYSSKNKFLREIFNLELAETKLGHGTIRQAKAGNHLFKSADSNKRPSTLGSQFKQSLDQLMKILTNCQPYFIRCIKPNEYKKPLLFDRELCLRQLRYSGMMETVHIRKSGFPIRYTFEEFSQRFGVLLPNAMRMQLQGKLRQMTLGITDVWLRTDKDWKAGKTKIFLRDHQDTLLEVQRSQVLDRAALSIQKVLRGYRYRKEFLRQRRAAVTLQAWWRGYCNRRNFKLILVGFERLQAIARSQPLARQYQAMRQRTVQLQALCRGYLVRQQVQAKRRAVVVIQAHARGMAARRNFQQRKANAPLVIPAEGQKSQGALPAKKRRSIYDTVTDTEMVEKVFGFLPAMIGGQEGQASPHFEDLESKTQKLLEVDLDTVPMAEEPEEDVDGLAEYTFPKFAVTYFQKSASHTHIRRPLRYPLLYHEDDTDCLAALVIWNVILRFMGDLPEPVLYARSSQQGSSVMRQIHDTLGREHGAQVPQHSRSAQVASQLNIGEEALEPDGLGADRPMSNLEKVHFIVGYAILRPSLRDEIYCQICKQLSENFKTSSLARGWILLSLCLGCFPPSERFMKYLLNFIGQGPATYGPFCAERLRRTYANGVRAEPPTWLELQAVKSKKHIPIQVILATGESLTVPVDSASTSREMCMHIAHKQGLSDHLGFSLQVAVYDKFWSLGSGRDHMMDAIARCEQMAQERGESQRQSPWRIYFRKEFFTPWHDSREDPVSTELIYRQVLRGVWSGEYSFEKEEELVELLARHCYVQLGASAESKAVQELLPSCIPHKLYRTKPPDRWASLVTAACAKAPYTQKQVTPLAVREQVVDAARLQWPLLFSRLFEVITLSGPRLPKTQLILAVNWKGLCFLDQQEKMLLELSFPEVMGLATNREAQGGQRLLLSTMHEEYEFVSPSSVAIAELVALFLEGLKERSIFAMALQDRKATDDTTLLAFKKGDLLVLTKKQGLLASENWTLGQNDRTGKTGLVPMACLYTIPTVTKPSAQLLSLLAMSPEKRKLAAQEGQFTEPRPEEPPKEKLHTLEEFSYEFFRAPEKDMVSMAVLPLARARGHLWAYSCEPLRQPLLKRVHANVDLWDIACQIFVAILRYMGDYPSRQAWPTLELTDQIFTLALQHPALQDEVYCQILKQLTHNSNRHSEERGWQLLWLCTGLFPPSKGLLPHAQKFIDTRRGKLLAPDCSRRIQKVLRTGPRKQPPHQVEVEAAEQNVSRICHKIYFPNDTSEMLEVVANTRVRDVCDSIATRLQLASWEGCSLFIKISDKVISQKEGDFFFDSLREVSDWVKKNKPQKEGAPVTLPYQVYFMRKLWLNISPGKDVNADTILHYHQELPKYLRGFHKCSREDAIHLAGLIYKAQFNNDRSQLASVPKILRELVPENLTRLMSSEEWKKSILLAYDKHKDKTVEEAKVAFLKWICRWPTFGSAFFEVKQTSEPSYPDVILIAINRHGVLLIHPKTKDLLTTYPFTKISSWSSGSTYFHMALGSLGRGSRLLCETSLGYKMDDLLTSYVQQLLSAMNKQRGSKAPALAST
UniProt Q8N1I0: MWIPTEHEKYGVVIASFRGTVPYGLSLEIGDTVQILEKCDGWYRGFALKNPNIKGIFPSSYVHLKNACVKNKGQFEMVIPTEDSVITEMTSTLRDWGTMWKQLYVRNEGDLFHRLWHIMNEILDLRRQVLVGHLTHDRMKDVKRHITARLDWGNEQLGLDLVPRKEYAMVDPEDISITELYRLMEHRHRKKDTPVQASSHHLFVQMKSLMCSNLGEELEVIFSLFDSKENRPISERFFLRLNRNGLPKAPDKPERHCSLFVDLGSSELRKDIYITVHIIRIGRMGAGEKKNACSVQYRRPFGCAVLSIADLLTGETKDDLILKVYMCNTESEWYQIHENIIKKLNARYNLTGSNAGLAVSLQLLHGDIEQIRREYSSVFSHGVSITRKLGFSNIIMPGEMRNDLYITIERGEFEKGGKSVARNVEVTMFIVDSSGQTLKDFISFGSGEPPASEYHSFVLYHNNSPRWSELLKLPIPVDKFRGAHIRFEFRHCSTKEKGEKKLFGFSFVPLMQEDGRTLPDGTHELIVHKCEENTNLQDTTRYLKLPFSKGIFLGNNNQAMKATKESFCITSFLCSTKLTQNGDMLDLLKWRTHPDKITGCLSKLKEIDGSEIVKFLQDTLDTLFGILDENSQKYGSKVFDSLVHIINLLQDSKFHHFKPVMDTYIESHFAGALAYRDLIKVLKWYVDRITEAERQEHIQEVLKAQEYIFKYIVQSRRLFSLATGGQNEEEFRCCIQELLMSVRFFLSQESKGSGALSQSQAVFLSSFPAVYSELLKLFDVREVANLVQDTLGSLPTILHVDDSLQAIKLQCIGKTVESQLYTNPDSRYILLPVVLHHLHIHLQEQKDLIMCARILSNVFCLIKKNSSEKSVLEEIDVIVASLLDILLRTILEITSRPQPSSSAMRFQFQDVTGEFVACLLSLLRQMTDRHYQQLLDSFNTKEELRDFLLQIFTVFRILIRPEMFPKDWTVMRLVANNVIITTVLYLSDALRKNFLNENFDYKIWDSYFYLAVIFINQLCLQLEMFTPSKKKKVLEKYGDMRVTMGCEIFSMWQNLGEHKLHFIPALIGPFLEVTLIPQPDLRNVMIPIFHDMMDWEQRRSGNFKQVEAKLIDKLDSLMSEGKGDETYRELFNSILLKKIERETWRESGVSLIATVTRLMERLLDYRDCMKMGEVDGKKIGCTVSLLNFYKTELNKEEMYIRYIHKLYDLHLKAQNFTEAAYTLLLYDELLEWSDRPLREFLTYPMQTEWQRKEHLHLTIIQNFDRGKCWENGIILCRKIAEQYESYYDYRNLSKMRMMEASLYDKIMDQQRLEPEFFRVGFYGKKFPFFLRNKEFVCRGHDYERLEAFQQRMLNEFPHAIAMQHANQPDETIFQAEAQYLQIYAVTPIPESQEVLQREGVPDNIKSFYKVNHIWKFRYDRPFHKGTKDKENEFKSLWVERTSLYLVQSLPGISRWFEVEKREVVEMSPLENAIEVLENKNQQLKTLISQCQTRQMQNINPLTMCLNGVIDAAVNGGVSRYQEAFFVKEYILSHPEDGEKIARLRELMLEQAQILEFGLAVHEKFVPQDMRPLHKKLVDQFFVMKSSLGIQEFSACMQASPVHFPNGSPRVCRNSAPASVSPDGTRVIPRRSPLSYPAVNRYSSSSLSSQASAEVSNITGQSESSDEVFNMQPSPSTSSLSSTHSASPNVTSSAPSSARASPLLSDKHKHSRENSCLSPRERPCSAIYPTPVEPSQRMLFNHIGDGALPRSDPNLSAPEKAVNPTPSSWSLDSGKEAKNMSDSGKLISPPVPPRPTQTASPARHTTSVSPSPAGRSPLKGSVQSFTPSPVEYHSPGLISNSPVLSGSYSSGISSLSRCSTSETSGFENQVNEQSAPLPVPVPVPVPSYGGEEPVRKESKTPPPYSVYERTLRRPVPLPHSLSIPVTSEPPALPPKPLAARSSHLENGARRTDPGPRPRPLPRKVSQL
UniProt P07355: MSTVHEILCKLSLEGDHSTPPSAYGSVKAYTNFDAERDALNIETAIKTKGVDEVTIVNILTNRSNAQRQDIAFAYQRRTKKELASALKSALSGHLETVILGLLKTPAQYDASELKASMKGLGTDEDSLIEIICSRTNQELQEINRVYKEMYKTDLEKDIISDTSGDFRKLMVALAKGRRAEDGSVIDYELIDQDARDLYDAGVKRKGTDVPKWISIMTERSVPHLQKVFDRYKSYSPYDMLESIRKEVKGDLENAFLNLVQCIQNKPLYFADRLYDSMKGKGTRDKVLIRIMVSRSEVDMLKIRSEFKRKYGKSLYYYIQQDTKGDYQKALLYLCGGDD

How the values were obtained:
histatin 5 (human) = histatin 5 (human) (UniProt P15516); assay: affinity purification with mass spectrometry; co-IP: synthetic histatin 5 held by mouse anti-histatin 3/5 monoclonal antibody on protein G magnetic beads; 300 ug pooled parotid saliva protein in PBS pH 7.5, 4°C, 24 h; washed with PBS; eluted with 2.5% acetic acid; in-solution or in-gel trypsin digestion, LC-ESI-MS/MS; only the target purified
[1] = target: biotinylated histatin 5 (human) (UniProt P15516); assay: affinity purification with mass spectrometry; pull-down: biotinylated histatin 5 on immobilized streptavidin agarose beads; 300 ug lyophilized parotid saliva in pH 7.0 binding buffer, 4 h, 4°C; washed with PBS with 75 mM NaCl pH 5.0; eluted at pH 2.8; trypsin digestion, LC-ESI-MS/MS; only the target purified

binding (histatin 5 (human)): binds | binding [1]: binds
Molecule: Lactoferrin (Fragment) (from UniProt Q19KS2)

binding (histatin 5 (human)): binds | binding [1]: binds
Molecule: Lactoferroxin-C (from UniProt P02788 20-710)

binding (histatin 5 (human)): binds | binding [1]: binds
Molecule: Lactoperoxidase (from UniProt P22079 81-712) (enzyme)

binding (histatin 5 (human)): binds | binding [1]: binds
Molecule: Filaggrin (from UniProt P20930 1-4061)

binding (histatin 5 (human)): binds | binding [1]: binds
Molecule: Carbonic anhydrase 6 (from UniProt P23280 18-308) (enzyme)

binding (histatin 5 (human)): binds | binding [1]: binds
Molecule: Deleted in malignant brain tumors 1 protein (from UniProt Q9UGM3 20-2413)

binding (histatin 5 (human)): binds | binding [1]: binds
Molecule: Coagulation factor VIII (from UniProt P00451 20-2351)

binding (histatin 5 (human)): binds | binding [1]: binds
Molecule: Pro-alpha-1 type V collagen variant (Fragment) (from UniProt P20908 38-1605)

binding (histatin 5 (human)): binds | binding [1]: binds
Molecule: Collagen alpha-2(I) chain (from UniProt P08123 80-1119)

binding (histatin 5 (human)): binds | binding [1]: binds
Molecule: Chromatin assembly factor 1, subunit A (P150), isoform CRA_a (from UniProt Q13111 1-956)

binding (histatin 5 (human)): binds | binding [1]: binds
Molecule: Unconventional myosin-VIIb (from UniProt Q6PIF6 1-2116)

binding (histatin 5 (human)): binds | binding [1]: binds
Molecule: Titin (from UniProt Q8WZ42 1-34350)

binding (histatin 5 (human)): binds | binding [1]: binds
Molecule: Dedicator of cytokinesis protein 4 (from UniProt Q8N1I0 1-1966)

binding (histatin 5 (human)): binds | binding [1]: binds
Molecule: IGL@ protein (Q8N355) (from UniProt Q8N355)

binding (histatin 5 (human)): binds | binding [1]: binds
Molecule: Hornerin (from UniProt Q86YZ3 1-2850)

binding (histatin 5 (human)): binds | binding [1]: binds
Molecule: Dedicator of cytokinesis 5, isoform CRA_a (from UniProt Q9H7D0 1-1870)

binding (histatin 5 (human)): binds | binding [1]: binds
Molecule: 1-phosphatidylinositol 4,5-bisphosphate phosphodiesterase eta-1 (from UniProt Q4KWH8 1-1693)

binding (histatin 5 (human)): binds | binding [1]: binds
Molecule: Annexin (Fragment) (from UniProt P07355 1-339)

binding (histatin 5 (human)): binds | binding [1]: binds
Molecule: Basic salivary proline-rich protein 2 (Fragment) (from UniProt P02812 17-416)

binding (histatin 5 (human)): binds | binding [1]: binds
Molecule: Immunoglobulin heavy chain variant (Fragment) (from UniProt Q9NPP6 1-416)

binding (histatin 5 (human)): binds | binding [1]: binds
Molecule: IGL@ protein (Q8N5F4) (from UniProt Q8N5F4)

binding (histatin 5 (human)): binds | binding [1]: binds
Molecule: Lactotransferrin (from UniProt P02788 20-710)

binding (histatin 5 (human)): binds | binding [1]: binds
Molecule: DSHEKRHHGYRRKFHEKHHSHREFPFYGDYGSNYLYDN (peptide, UniProt P15515 20-57, serine phosphate at residue 2) [Histatin-1]

binding (histatin 5 (human)): binds | binding [1]: binds
B1: MUF1 protein variant (Fragment) (protein, UniProt Q15345 1-812)
chain: MAAPEAWRARSCWFCEVAAATTMEATSREAAPAKSSASGPNAPPALFELCGRAVSAHMGVLESGVWALPGPILQSILPLLNIYYLERIEETALKKGLSTQAIWRRLWDELMKTRPSSLESVTCWRAKFMEAFFSHVLRGTIDVSSDRRLCDQRFSPLLHSSRHVRQLTICNMLQGATELVAEPNRRVLETLASSLHTLKFRHLLFSDVAAQQSLRQLLHQLIHHGAVSQVSLYSWPVPESALFILILTMSAGFWQPGPGGPPCRLCGEASRGRAPSRDEGSLLLGSRRPRRDAAERCAAALMASRRKSEAKQMPRAAPATRVTRRSTQESLTAGGTDLKRELHPPATSHEAPGTKRSPSAPAATSSASSSTSSYKRAPASSAPQPKPLKRFKRAAGKKGARTRQGPGAESEDLYDFVFIVAGEKEDGEEMEIGEVACGALDGSDPSCLGLPALEASQRFRSISTLELFTVPLSTEAALTLCHLLSSWVSLESLTLSYNGLGSNIFRLLDSLRALSGQAGCRLRALHLSDLFSPLPILELTRAIVRALPLLRVLSIRVDHPSQRDNPGVPGNAGPPSHIIGDEEIPENCLEQLEMGFPRGAQPAPLLCSVLKASGSLQQLSLDSATFASPQDFGLVLQTLKEYNLALKRLSFHDMNLADCQSEVLFLLQNLTLQEITFSFCRLFEKRPAQFLPEMVAAMKGNSTLKGLRLPGNRLGNAGLLALADVFSEDSSSSLCQLDISSNCIKPDGLLEFAKRLERWGRGAFGHLRLFQNWLDQDAVTAREAIRRLRATCHVVSDSWDSSQAFADYVSTM

binding (histatin 5 (human)): binds | binding [1]: binds
Molecule: DSHAKRHHGYKRKFHEKHHSHRGYRSNYLYDN (peptide, UniProt P15516 20-51) [Histatin-3]

binding (histatin 5 (human)): binds | binding [1]: binds
B2: Phosphoinositide 3-kinase adapter protein 1 (protein, UniProt Q6ZUJ8 1-805)
chain: MAASGVPRGCDILIVYSPDAEEWCQYLQTLFLSSRQVRSQKILTHRLGPEASFSAEDLSLFLSTRCVVVLLSAELVQHFHKPALLPLLQRAFHPPHRVVRLLCGVRDSEEFLDFFPDWAHWQELTCDDEPETYVAAVKKAISEDSGCDSVTDTEPEDEKVVSYSKQQNLPTVTSPGNLMVVQPDRIRCGAETTVYVIVRCKLDDRVATEAEFSPEDSPSVRMEAKVENEYTISVKAPNLSSGNVSLKIYSGDLVVCETVISYYTDMEEIGNLLSNAANPVEFMCQAFKIVPYNTETLDKLLTESLKNNIPASGLHLFGINQLEEEDMMTNQRDEELPTLLHFAAKYGLKNLTALLLTCPGALQAYSVANKHGHYPNTIAEKHGFRDLRQFIDEYVETVDMLKSHIKEELMHGEEADAVYESMAHLSTDLLMKCSLNPGCDEDLYESMAAFVPAATEDLYVEMLQASTSNPIPGDGFSRATKDSMIRKFLEGNSMGMTNLERDQCHLGQEEDVYHTVDDDEAFSVDLASRPPVPVPRPETTAPGAHQLPDNEPYIFKVFAEKSQERPGNFYVSSESIRKGPPVRPWRDRPQSSIYDPFAGMKTPGQRQLITLQEQVKLGIVNVDEAVLHFKEWQLNQKKRSESFRFQQENLKRLRDSITRRQREKQKSGKQTDLEITVPIRHSQHLPAKVEFGVYESGPRKSVIPPRTELRRGDWKTDSTSSTASSTSNRSSTRSLLSVSSGMEGDNEDNEVPEVTRSRSPGPPQVDGTPTMSLERPPRVPPRAASQRPPTRETFHPPPPVPPRGR

binding (histatin 5 (human)): binds | binding [1]: binds
B3: BPI fold-containing family A member 2 (protein, UniProt Q96DR5 19-249)
chain: ESLLDNLGNDLSNVVDKLEPVLHEGLETVDNTLKGILEKLKVDLGVLQKSSAWQLAKQKAQEAEKLLNNVISKLLPTNTDIFGLKISNSLILDVKAEPIDDGKGLNLSFPVTANVTVAGPIIGQIINLKASLDLLTAVTIETDPQTHQPVAVLGECASDPTSISLSLLDKHSQIINKFVNSVINTLKSTVSSLLQKEICPLIRIFIHSLDVNVIQQVVDNPQHKTQLQTLI

binding (histatin 5 (human)): binds | binding [1]: binds
B4: Lim-homeobox transcription factor LHX3 (protein, UniProt Q9UBR4 1-397)
chain: MLLETGLERDRARPGAAAVCTLGGTREIPLCAGCDQHILDRFILKALDRHWHSKCLKCSDCHTPLAERCFSRGESVYCKDDFFKRFGTKCAACQLGIPPTQVVRRAQDFVYHLHCFACVVCKRQLATGDEFYLMEDSRLVCKADYETAKQREAEATAKRPRTTITAKQLETLKSAYNTSPKPARHVREQLSSETGLDMRVVQVWFQNRRAKEKRLKKDAGRQRWGQYFRNMKRSRGGSKSDKDSVQEGQDSDAEVSFPDEPSLAEMGPANGLYGSLGEPTQALGRPSGALGNFSLEHGGLAGPEQYRELRPGSPYGVPPSPAAPQSLPGPQPLLSSLVYPDTSLGLVPSGAPGGPPPMRVLAGNGPSSDLSTGSSGGYPDFPASPASWLDEVDHAQF

binding (histatin 5 (human)): binds | binding [1]: binds
B5: Lysozyme C (P61626) (enzyme, UniProt P61626 19-148)
chain: KVFERCELARTLKRLGMDGYRGISLANWMCLAKWESGYNTRATNYNAGDRSTDYGIFQINSRYWCNDGKTPGAVNACHLSCSALLQDNIADAVACAKRVVRDPQGIRAWVAWRNRCQNRDVRQYVQGCGV

binding (histatin 5 (human)): binds | binding [1]: binds
B6: Teashirt homolog 1 (protein, UniProt Q6ZSZ6 1-1077)
chain: MPRRKQQAPRRSAAYVPEEELKAAEIDEEHVEDDGLSLDIQESEYMCNEETEIKEAQSYQNSPVSSATNQDAGYGSPFSESSDQLAHFKGSSSREEKEDPQCPDSVSYPQDSLAQIKAVYANLFSESCWSSLALDLKKSGSTTSTNDASQKESSAPTPTPPTCPVSTTGPTTSTPSTSCSSSTSHSSTTSTSSSSGYDWHQAALAKTLQQTSSYGLLPEPSLFSTVQLYRQNNKLYGSVFTGASKFRCKDCSAAYDTLVELTVHMNETGHYRDDNRDKDSEKTKRWSKPRKRSLMEMEGKEDAQKVLKCMYCGHSFESLQDLSVHMIKTKHYQKVPLKEPVPAITKLVPSTKKRALQDLAPPCSPEPAGMAAEVALSESAKDQKAANPYVTPNNRYGYQNGASYTWQFEARKAQILKCMECGSSHDTLQQLTAHMMVTGHFLKVTTSASKKGKQLVLDPVVEEKIQSIPLPPTTHTRLPASSIKKQPDSPAGSTTSEEKKEPEKEKPPVAGDAEKIKEESEDSLEKFEPSTLYPYLREEDLDDSPKGGLDILKSLENTVSTAISKAQNGAPSWGGYPSIHAAYQLPGTVKPLPAAVQSVQVQPSYAGGVKSLSSAEHNALLHSPGSLTPPPHKSNVSAMEELVEKVTGKVNIKKEERPPEKEKSSLAKAASPIAKENKDFPKTEEVSGKPQKKGPEAETGKAKKEGPLDVHTPNGTEPLKAKVTNGCNNLGIIMDHSPEPSFINPLSALQSIMNTHLGKVSKPVSPSLDPLAMLYKISNSMLDKPVYPATPVKQADAIDRYYYENSDQPIDLTKSKNKPLVSSVADSVASPLRESALMDISDMVKNLTGRLTPKSSTPSTVSEKSDADGSSFEEALDELSPVHKRKGRQSNWNPQHLLILQAQFASSLRETTEGKYIMSDLGPQERVHISKFTGLSMTTISHWLANVKYQLRRTGGTKFLKNLDTGHPVFFCNDCASQFRTASTYISHLETHLGFSLKDLSKLPLNQIQEQQNVSKVLTNKTLGPLGATEEDLGSTFQCKLCNRTFASKHAVKLHLSKTHGKSPEDHLIYVTELEKQ
